Experimental findings from PMC3118807 are described below.

Sequences of proteins named here, by UniProt entry; tags and fusion partners are left off. A change or cut given only in a name is not applied to a line headed by its entry.
UniProt P03230: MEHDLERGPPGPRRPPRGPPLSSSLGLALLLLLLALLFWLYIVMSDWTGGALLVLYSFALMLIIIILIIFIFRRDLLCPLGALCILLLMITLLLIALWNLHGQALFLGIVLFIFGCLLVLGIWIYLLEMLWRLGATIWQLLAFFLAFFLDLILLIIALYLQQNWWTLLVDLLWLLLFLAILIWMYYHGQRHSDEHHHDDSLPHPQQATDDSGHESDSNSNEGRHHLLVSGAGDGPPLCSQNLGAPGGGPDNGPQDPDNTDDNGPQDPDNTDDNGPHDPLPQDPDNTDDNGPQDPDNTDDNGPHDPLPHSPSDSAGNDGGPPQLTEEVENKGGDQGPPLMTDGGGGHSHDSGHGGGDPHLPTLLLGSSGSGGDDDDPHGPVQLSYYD
UniProt P41134: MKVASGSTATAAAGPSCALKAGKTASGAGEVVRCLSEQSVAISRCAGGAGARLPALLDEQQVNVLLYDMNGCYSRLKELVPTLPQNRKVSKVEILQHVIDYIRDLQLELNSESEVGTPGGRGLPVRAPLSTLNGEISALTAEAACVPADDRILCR

In the test the target is HA-B95.8 LMP1 wild type (Epstein-Barr virus, B95.8 prototype) (UniProt P03230). Description: co-IP; HEK293 cells co-transfected with tagged LMP1 and tagged Id1; 400 µg of cell lysate incubated with primary antibody (anti-FLAG or anti-HA) for 2 hours, Protein A agarose for 1 hour, beads washed three times with lysis buffer; Western blot with anti-FLAG (M2) and anti-HA (12CA5). On the technique in general: Immunoblotting shows a protein as a band on a membrane.

Results are given in words; binding and its absence hold for the method and conditions named. Binding seen in cells or lysates may run through a third protein. Binding calls can cover weak binding; strength is not graded here.

As to “FLAG-Id1-ΔC (from UniProt P41134) (domain or fragment)”, the binding entry is “binds”.
